Data reported in PubChem BioAssay AID2685 (National Center for Advancing Translational Sciences (NCATS), 2010).
This is one part of the list. Shown are side measurements of this screen, not its main read-out; they come without a call. Most of these compounds were active or inconclusive in the main read-out, so they are no random draw. The note in brackets gives the kind of curve behind each potency; many fits are weak.

Test: qHTS Assay for Lipid Storage Modulators in Drosophila S3 Cells;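 as to cell number change: cells counted by Cell Tracker Red CMTPX staining in the red channel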
Conditions: BODIPY lipid droplet fluorescence, 18-24 h; for cell number change: measured here: cell count max response, cells fed with added oleic acid
Method in brief: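 Laser-scanning cytometry quantifies lipid droplet accumulation (500–530 nm total intensity; droplet/cell object ratio) in oleic acid-fed (400 uM added) Drosophila S3 cells treated with a concentration series. 20 uM Triacsin C defined 100% inhibition.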

[1] = measured here: cell number channel AC50, cells fed with added oleic acid
[2] = measured here: lipid fluorescence (Fed channel) AC50, cells fed with added oleic acid

Structure (SMILES) | AC50 [1] | AC50 [2] | cell number change
COc1ccc(CC(=O)N2N=C(c3ccncc3)CC2(O)C(F)(F)F)cc1 (stereo not given) | 3.26 µM [rising, single point] | 3.66 µM [rising, full curve] | –
COC(=O)[C@@]12CCCCN1[C@H](c1ccc(SC3CCCCC3)c(OC)c1)[C@@H]1C(=O)N(C)C(=O)[C@@H]12 | – | 0.103 µM [rising, full curve, poor fit] | 17.6%
CC1(c2ccccc2)NC(=O)N(CC(=O)NNC(=O)c2ccccc2F)C1=O (stereo not given) | 0.0058 µM [falling, full curve, poor fit] | – | -24%
CCCSc1nc(N2CCOCC2)c2c(c1C#N)CC(C)(C)SC2 | – | 1.3 µM [falling, full curve] | –
N#Cc1c(N)nc2c(c1-c1ccncc1)CCCCC2 | – | – | -21.3%
Cc1onc(NC(=O)c2ccc(Cl)cc2Cl)c1Br | – | 0.00461 µM [falling, full curve, poor fit] | 20.8%
O=C(NC(=S)Nc1ccccc1Br)C1CCCC1 | – | 14.6 µM [rising, partial curve] | 28.4%
COc1ccc(Cn2nnnc2C(c2ccccn2)N2CCN(c3cc(Cl)ccc3C)CC2)cc1 (stereo not given) | 1.16 µM [falling, single point] | – | -8.91%
Cc1nc(CS(=O)(=O)c2ccc(Cl)cc2)cc(Sc2ccccc2Cl)n1 | 18.4 µM [rising, single point] | 18.4 µM [rising, single point] | 32.6%
COc1ccc(CCNC(=O)/C=C/c2ccc(C)cc2)cc1OC | 9.2 µM [falling, partial curve] | 8.2 µM [falling, partial curve] | -38.5%
COC(=O)[C@@]12CCCN1[C@H](c1ccc(-c3ccc(F)cc3)c(OC)c1)[C@H]1C(=O)N(C)C(=O)[C@H]12 | – | 0.146 µM [falling, full curve, poor fit] | 17.9%
CCn1cnc2sc(C(=O)Nc3ccc4c(c3)OCO4)c(C)c2c1=O | 0.461 µM [rising, full curve] | 0.651 µM [rising, full curve] | –
Cc1cccc(C)c1NC(=O)N1C2CCCC1CC(NC(=O)C(C)(C)C)C2 (stereo not given) | – | – | -10.7%
CNC(=O)COc1cccc(C(=O)NCc2ccccc2)c1 | – | 10.3 µM [rising, partial curve, poor fit] | 27.3%
Cc1cccc(CSc2nnc(-c3ccco3)n2C)c1 | 6.51 µM [falling, single point] | – | -18.1%
O=S(=O)(c1ccc(S(=O)(=O)n2cnc3ccccc32)cc1)N1CCCCCC1 | – | – | 1.84%

Taken from above (3 entries):
Structure (SMILES) | AC50 [1] | AC50 [2] | cell number change
COc1ccc(CCNC(=O)/C=C/c2ccc(C)cc2)cc1OC | 9.2 µM [falling, partial curve] | 8.2 µM [falling, partial curve] | -38.5%
COC(=O)[C@@]12CCCN1[C@H](c1ccc(-c3ccc(F)cc3)c(OC)c1)[C@H]1C(=O)N(C)C(=O)[C@H]12 | – | 0.146 µM [falling, full curve, poor fit] | 17.9%
CCn1cnc2sc(C(=O)Nc3ccc4c(c3)OCO4)c(C)c2c1=O | 0.461 µM [rising, full curve] | 0.651 µM [rising, full curve] | –
